This is one part of the list.

The target of this assay is T1, OsSMF1 (Oryza sativa, UniProt Q6ZLB0 1-436).
T1 sequence: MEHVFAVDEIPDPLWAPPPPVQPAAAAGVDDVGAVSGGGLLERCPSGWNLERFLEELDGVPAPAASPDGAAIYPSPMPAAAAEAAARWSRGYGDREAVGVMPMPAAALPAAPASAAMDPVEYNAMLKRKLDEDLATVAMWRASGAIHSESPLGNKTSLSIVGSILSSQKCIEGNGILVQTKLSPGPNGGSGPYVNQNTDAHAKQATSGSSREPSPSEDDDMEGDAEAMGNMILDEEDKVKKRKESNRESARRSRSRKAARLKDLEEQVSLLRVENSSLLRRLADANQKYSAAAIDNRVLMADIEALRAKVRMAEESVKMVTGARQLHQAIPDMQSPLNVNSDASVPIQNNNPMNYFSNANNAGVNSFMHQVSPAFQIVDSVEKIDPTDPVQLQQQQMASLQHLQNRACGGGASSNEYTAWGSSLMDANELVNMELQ
The experiment in a line: protein-binding microarray (RPBM); PBS, 2% BSA, 51.3 ng/ul salmon testes DNA, 50 uM zinc acetate, 200 nM TF, 25 C, 1 h; high values mean tight binding. To be noted: protein: recombinant; tags: N-terminal polyhistidine and DsRed monomer fusion (pET32a); chain copies: 2; label: CyDye5-dUTP incorporated in the synthesized complementary strand; 3' TTTTT single-stranded linker to array surface; dsDNA, one strand shown. Put shortly:
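Transcription factors, each fused N-terminally to a polyhistidine tag and DsRed, were expressed in E. coli BL21-CodonPlus and purified on Ni–NTA. A custom Agilent array was made double-stranded by primer extension with Cy5-dUTP and blocked with 2% BSA. It was incubated with 200 nM protein in PBS, 2% BSA, salmon testes DNA and 50 µM zinc acetate at 25 °C for 1 h, then washed. The binding signal is per-feature fluorescence intensity (arbitrary units) read on an Axon 4000B scanner.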
As to “TGAGAGCGCGACCGCCGCCACCTCAATAGAAACCGCCGAGCGGAGTCACCTAGTGCAG”, the binding signal is 3210 fluorescence intensity (a.u.).

Regarding “TGCATCATCGGTCGCAATGGATAGGAGGATAGGATCGCAGCGGAGTCACCTAGTGCAG”, the binding signal is 34200 fluorescence intensity (a.u.).

Regarding “CCTACTCCTGCTCCTGCTGCTCCGCTTCCGCGCCGCCGCCCGGAGTCACCTAGTGCAG”, the binding signal is 3790 fluorescence intensity (a.u.).

With “GATTCGTCTCGTAAAATAGGCTAGGGATTATGGAATCGGTCGGAGTCACCTAGTGCAG”, the binding signal is 3140 fluorescence intensity (a.u.).

As to “GCGCTCCCGCAAGAGGCCCTTGATGATGTCGTCGATGGCACGGAGTCACCTAGTGCAG”, the binding signal is 4270 fluorescence intensity (a.u.).

For “TACGCCGTTGCTTATAAAAGGCCTTGGCCTTGTGTCACATCGGAGTCACCTAGTGCAG”, the binding signal was 3170 fluorescence intensity (a.u.).

For the sequence “CCGCCACGAGAGAGCTCTCTCCCACTTCTTCCTTCCTGCGCGGAGTCACCTAGTGCAG”, the binding signal was 31700 fluorescence intensity (a.u.).

For “GAGGACGGCCTCGGCGGAGAGGATGGAGGTGACGAGGAGCCGGAGTCACCTAGTGCAG”, the binding signal is 3630 fluorescence intensity (a.u.).

Consider “TGCAGTTTAGAACGTGACATAACATAGATATTTAATGCTCCGGAGTCACCTAGTGCAG”, for which the binding signal is 4110 fluorescence intensity (a.u.).

On to “CCTCTGCCTCTTGGGGTCGCCGCCACGCCAACTGGAGTCACGGAGTCACCTAGTGCAG”, for which the binding signal is 5090 fluorescence intensity (a.u.).

With “TCCTCACCGCACGCCACACACTGACTCCATACGCACAAGGCGGAGTCACCTAGTGCAG”, the binding signal is 4090 fluorescence intensity (a.u.).

For the sequence “AATTCTTGGAATCTGATGGGATTCCATCCCCGAGTGACAACGGAGTCACCTAGTGCAG”, the binding signal is 13500 fluorescence intensity (a.u.).

In the case of “GAAATTGATGAGTGGGTCCCACGTGTAGTTGAGCCAATCACGGAGTCACCTAGTGCAG”, the binding signal is 7970 fluorescence intensity (a.u.).

Consider “GCAGTGGCTAAGCTTAAGCTCAGGTATGATGACTCGTTGGCGGAGTCACCTAGTGCAG”, for which the binding signal was 3610 fluorescence intensity (a.u.).

Take “GATCACCATTCTGGCTTTAATGGAAGCCACTTTCATCACCCGGAGTCACCTAGTGCAG”: the binding signal is 3460 fluorescence intensity (a.u.).

With “ATTTTGCAGCCATACATGACACAACACATTCGAGTCTTCGCGGAGTCACCTAGTGCAG”, the binding signal was 3820 fluorescence intensity (a.u.).

As for “TCACGCCGGCGAGACGGCGTCACGGTGCCACGGCGACGGCCGGAGTCACCTAGTGCAG”, the binding signal is 4780 fluorescence intensity (a.u.).

“AATCAACACGGGCCGATGGGCCGATTGTATCGGTACCCGTCGGAGTCACCTAGTGCAG”: the binding signal is 3450 fluorescence intensity (a.u.).

For the sequence “CCGCGCCCTCTCCCCTCGCCGCCCTCTCTCACGCATCCCCCGGAGTCACCTAGTGCAG”, the binding signal was 4540 fluorescence intensity (a.u.).

Consider “GCTGAGTTGCATGAGTAAGACCCCACGCGCACGTCATTTGCGGAGTCACCTAGTGCAG”, for which the binding signal was 9720 fluorescence intensity (a.u.).

For “CAACAACACAGCTACTACTCGATCCCCAACGTGGTATAAGCGGAGTCACCTAGTGCAG”, the binding signal was 3700 fluorescence intensity (a.u.).

Turning to “CTGTTGTGCTGACGCTCAATACTATTTCTCACTGGAATGTCGGAGTCACCTAGTGCAG”, the binding signal is 3370 fluorescence intensity (a.u.).

As for “AAGACAAAATGATCAATAGCAAGGCTTTGTGAAAAGTTAGCGGAGTCACCTAGTGCAG”, the binding signal was 12300 fluorescence intensity (a.u.).

Take “GGACGTGATTCAAACTCGCGTGGGTGATCGAAAGTGGACTCGGAGTCACCTAGTGCAG”: the binding signal is 4640 fluorescence intensity (a.u.).

In the case of “CAGCCGGTGGGCCTGCATGACAAGTGGGCCCAGTGACACTCGGAGTCACCTAGTGCAG”, the binding signal was 3320 fluorescence intensity (a.u.).

Consider “CCCGAGCCCTCGACACCAACCCCGTCAGATGTGAAGCCGACGGAGTCACCTAGTGCAG”, for which the binding signal was 3980 fluorescence intensity (a.u.).

For the sequence “TAGGCCGCCCCTCTTGTGGTCTCTGAGTCACTTGCAATATCGGAGTCACCTAGTGCAG”, the binding signal was 5760 fluorescence intensity (a.u.).

With “ACAGCCGGTCGAGATGAGGCCTCATCCCCACAAAGTATTTCGGAGTCACCTAGTGCAG”, the binding signal was 3530 fluorescence intensity (a.u.).

As for “CACCATTCTCCTCTTGCGATTTCACCACCACCGCCACGGCCGGAGTCACCTAGTGCAG”, the binding signal was 3480 fluorescence intensity (a.u.).

As for “CACATGCTATAGTGACGTACCATACGTTGAAACAACCACTCGGAGTCACCTAGTGCAG”, the binding signal was 3810 fluorescence intensity (a.u.).

Turning to “CACCGCAACAGTTTCACTAATCACCAGTCATTACACTCTGCGGAGTCACCTAGTGCAG”, the binding signal is 3470 fluorescence intensity (a.u.).

As for “CGGCGAAGTAGCAAGGGTTGAGTCTGCATCATCAACCAATCGGAGTCACCTAGTGCAG”, the binding signal is 3370 fluorescence intensity (a.u.).

Regarding “GCTACATGGTTATCACGCAGACCATTTACATGCACCAACGCGGAGTCACCTAGTGCAG”, the binding signal is 4200 fluorescence intensity (a.u.).

As for “AATCCTAACCATTCATTCATTTCCCAATCCCAATTCCATTCGGAGTCACCTAGTGCAG”, the binding signal is 23000 fluorescence intensity (a.u.).

Consider “AATAGTGTAGTATGTAACTATTATATGAATGAGCTATTAACGGAGTCACCTAGTGCAG”, for which the binding signal was 20900 fluorescence intensity (a.u.).

For “ACAAGTACTACACGCGAATGTATTTCAATAGAAATTTATCCGGAGTCACCTAGTGCAG”, the binding signal was 35600 fluorescence intensity (a.u.).

As for “AGAATATTACTTGCCTTCCACACCCTTAATCACATGCACGCGGAGTCACCTAGTGCAG”, the binding signal was 3610 fluorescence intensity (a.u.).

In the case of “GGGCGGAGCGGGGCGGAGGGAGAGGAGGGAGAGGAGGGAGCGGAGTCACCTAGTGCAG”, the binding signal was 4920 fluorescence intensity (a.u.).

“ATATATATATATTACATGATGTCGTCAGTCTTGTCAACTGCGGAGTCACCTAGTGCAG”: the binding signal is 4260 fluorescence intensity (a.u.).

On to “AGCCCACAACAGCAGAACAACTCACCCGTGCCCTCCACCACGGAGTCACCTAGTGCAG”, for which the binding signal is 3220 fluorescence intensity (a.u.).

On to “GGGCATGTAAAATTTCTTTCTACTGGGATAACTCTTCTTGCGGAGTCACCTAGTGCAG”, for which the binding signal is 3480 fluorescence intensity (a.u.).

In the case of “GTGCGGACGTGTTGTAAACACCTGTGTTTATACTGTATTTCGGAGTCACCTAGTGCAG”, the binding signal was 3660 fluorescence intensity (a.u.).

Values taken from article PMC7819943, “Rice protein-binding microarrays: a tool to detect cis-acting elements near promoter regions in rice”.
